{"source": "patent US20250389728A1", "about": "“NOVEL CLASS OF TRIOXANE-BASED MS-CLEAVABLE CROSS-LINKERS TO ADVANCE PROTEIN-PROTEIN INTERACTION STUDIES USING CROSS-LINKING MASS SPECTROMETRY” (The Regents of the University of California, priority 2024, published 2025)", "key": {"[1]": {"test_system": "mouse heart tissue", "assay": "In vivo TSTO cross-linking of mouse heart tissue, LC-MSn", "settings": "1 mM TSTO in PBS, 1 h RT"}, "[2]": {"test_system": "HEK293 cells", "assay": "In vivo TSTO cross-linking of human cells, LC-MSn (XL-MS)", "assay_type": "cell-based"}}}
{"compound": "O=C(CCCC1OC(CCCC(=O)ON2C(=O)CCC2=O)OC(CCCC(=O)ON2C(=O)CCC2=O)O1)ON1C(=O)CCC1=O", "note": "(centres unmarked) [TSTO, Tris(2,5-dioxopyrrolidin-1-yl) 4,4′,4″-(1,3,5-trioxane-2,4,6-triyl)tributanoate]", "values": [{"measurement": "total CSMs", "setting": "[1]", "value": "4,770"}, {"measurement": "unique bivalent cross-links", "setting": "[1]", "value": 921}, {"measurement": "unique trivalent cross-links", "setting": "[1]", "value": 170}, {"measurement": "share of unique CSMs that were tri-links", "setting": "[2]; 1 mM, intact cells", "value": 32.3, "unit": "%"}, {"measurement": "total unique CSMs", "setting": "[2]; 1 mM, intact cells, two biological replicates", "value": 9079}, {"measurement": "mapped K-K linkages considered satisfactory (≤35 Å)", "setting": "[2]; 1790 K-K linkages across 539 CORUM complexes", "value": 95, "unit": "%"}, {"measurement": "XL-proteome, number of proteins", "setting": "[2]; in-cell cross-linking", "value": 1512, "unit": "proteins"}, {"measurement": "number of PPIs in XL-proteome", "setting": "[2]; in-cell cross-linking", "value": 1242, "unit": "PPIs"}]}
